## Screening data, single-dose tests

Protein sequences, listed by entry. Tags and fused reporters are not part of them. Residues count along the entry.
UniProt P9WFT3, whole entry: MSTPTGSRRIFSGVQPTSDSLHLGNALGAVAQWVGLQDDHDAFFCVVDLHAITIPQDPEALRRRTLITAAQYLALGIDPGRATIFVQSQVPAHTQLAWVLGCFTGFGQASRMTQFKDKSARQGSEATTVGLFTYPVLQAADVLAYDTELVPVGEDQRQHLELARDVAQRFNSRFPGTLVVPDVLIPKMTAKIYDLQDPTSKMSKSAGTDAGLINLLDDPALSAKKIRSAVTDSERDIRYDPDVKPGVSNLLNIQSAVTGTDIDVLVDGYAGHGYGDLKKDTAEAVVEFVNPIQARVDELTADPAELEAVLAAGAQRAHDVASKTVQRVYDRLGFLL
UniProt P9WPC5, whole entry: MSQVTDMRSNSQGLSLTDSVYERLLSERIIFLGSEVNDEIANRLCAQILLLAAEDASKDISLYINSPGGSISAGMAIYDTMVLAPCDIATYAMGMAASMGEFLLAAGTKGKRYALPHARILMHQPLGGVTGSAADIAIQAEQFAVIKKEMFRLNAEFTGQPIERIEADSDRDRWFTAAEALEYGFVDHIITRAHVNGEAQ
UniProt P9WPC3, whole entry partner: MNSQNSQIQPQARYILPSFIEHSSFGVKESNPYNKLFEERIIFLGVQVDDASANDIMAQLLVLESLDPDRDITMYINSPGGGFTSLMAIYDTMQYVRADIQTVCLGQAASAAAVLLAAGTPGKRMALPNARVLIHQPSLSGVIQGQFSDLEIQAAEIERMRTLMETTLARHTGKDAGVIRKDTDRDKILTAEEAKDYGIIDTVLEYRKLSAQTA
UniProt Q8IDJ8, 1-583: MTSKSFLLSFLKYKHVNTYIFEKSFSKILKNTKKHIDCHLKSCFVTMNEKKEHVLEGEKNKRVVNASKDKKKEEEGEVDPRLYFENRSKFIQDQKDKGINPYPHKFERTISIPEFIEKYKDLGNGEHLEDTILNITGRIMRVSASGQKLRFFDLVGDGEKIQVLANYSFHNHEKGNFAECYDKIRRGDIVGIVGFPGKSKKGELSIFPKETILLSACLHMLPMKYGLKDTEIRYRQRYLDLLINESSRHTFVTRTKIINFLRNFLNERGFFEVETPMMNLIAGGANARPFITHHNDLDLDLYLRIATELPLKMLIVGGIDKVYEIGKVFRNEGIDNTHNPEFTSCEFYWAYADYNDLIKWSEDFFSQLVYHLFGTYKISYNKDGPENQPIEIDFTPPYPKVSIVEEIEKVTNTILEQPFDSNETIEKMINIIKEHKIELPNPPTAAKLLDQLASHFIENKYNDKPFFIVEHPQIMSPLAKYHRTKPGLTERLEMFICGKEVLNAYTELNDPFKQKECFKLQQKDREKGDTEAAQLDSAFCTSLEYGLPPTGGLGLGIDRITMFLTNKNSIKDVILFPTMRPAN
UniProt P9WNZ1, whole entry: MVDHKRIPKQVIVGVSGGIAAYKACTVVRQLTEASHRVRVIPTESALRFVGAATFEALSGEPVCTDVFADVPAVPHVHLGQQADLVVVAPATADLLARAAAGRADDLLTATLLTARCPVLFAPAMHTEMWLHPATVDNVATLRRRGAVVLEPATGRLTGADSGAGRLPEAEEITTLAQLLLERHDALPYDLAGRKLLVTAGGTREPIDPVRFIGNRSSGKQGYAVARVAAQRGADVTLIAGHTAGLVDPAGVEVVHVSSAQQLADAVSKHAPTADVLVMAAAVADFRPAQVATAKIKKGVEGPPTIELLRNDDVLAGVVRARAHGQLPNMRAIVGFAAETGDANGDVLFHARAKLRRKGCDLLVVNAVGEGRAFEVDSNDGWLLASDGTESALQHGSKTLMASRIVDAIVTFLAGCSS

From ChEMBL document CHEMBL3988442, “University of Dundee, Small-Polar-MMV Screening Library” (2021).

The filed quantity is “Percent Effect” (%).
The controls that fix the scale are not given in the record; negative values are as filed.
This is an unselected part of the compounds tested.

MtTrpRS: 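Enzyme assay of tryptophanyl-tRNA synthetase; the read-out is not stated. Target: Tryptophan-tRNA ligase, Mycobacterium tuberculosis (UniProt P9WFT3). Concentration: 10 µM. Direction is not recorded; retested compounds ran higher, which suggests that high means inhibition. Of about 65,000 compounds tested this way, about 64 (0.098%) reached 50% or more in at least one test.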
ClpP1P2: 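Protease assay of ClpP1P2, read by the AMC dye that it sets free. Target: ClpP1P2, Mycobacterium tuberculosis (UniProt P9WPC5 and UniProt P9WPC3). Compounds at 50 µM. Higher reads as stronger inhibition, judged from the few compounds that gave an IC50. Most other retested compounds had strongly negative values. About 69,000 compounds were tested under these conditions; 0.015% (about 10) showed 50% or more at least once.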
Leishmania in macrophages: 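Cell assay of Leishmania donovani living inside macrophages; the read-out is not stated. Compounds at 30 µM. The record gives no direction; compounds that gave an IC50 in retests scored well above the rest, so higher reads as stronger inhibition. About 69,000 compounds were tested under these conditions; 1.5% (about 1,000) showed 50% or more at least once.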
PfKRS1: 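Lysine-tRNA ligase, Plasmodium falciparum 3D7 (UniProt Q8IDJ8). Enzyme assay of the cytosolic lysyl-tRNA synthetase in 384-well plates, read by luminescence. Tested at 30 µM. Direction is inferred from only a few compounds that gave an IC50; most scored high, so higher reads as stronger inhibition. Of about 69,000 compounds tested this way, about 49 (0.071%) reached 50% or more in at least one test.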
CoaBC: 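Enzyme assay of CoaBC with a phosphate dye (Biomol Green) read at 650 nm. Target: Coenzyme A biosynthesis protein CoaBC, Mycobacterium tuberculosis (UniProt P9WNZ1). Concentration: 30 µM. Direction is inferred from only a few compounds that gave an IC50; most scored high, so higher reads as stronger inhibition. Most strong results did not repeat in a second test. About 67,000 compounds were tested under these conditions; 0.06% (about 40) showed 50% or more at least once.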

Result for Cn1nc(N2CCCC(C(=O)Nc3nc4ccccc4[nH]3)C2)ccc1=O (stereo not shown) was MtTrpRS: 0.4944%; ClpP1P2: -15.6%; Leishmania in macrophages: -23.67%; PfKRS1: 4.285%; CoaBC: 2.554%. Result for Cc1cc(C)n(C2CCCN(C(=O)CCOc3ccccc3F)C2)n1 (stereo not shown) was MtTrpRS: -3.438%; ClpP1P2: -3.628%; Leishmania in macrophages: 4.215%; PfKRS1: 0.03946%; CoaBC: 2.887%. CC(C)N1CC[C@@](C)(O)[C@H](n2ccc(=O)[nH]c2=O)C1 read MtTrpRS: -2.626%; ClpP1P2: 30.66%; Leishmania in macrophages: -3.478%; PfKRS1: -0.4695%; CoaBC: 0.5256%. With O=C(O)C(F)(F)F.[H][C@@]12CN(Cc3cccc(C#N)c3)C[C@]1([H])CN(c1ncccn1)C2 the screen gave Leishmania in macrophages: 36.62%. COc1ccc(N(C(=O)Cc2ccc(C)nc2)C(C)C)cc1F gave MtTrpRS: 1.474%; ClpP1P2: 13.79%; Leishmania in macrophages: 12.16%; PfKRS1: 2.619%; CoaBC: -5.492%. Result for [H][C@]12CC[C@]([H])(CN(C)C1)N(C(=O)c1ccc(Cl)c(C)c1)C2 was Leishmania in macrophages: 0.6078%.

N#CC1(NC(=O)c2nccc3ccccc23)CCSCC1 read MtTrpRS: -2.621%; ClpP1P2: -4.394%; Leishmania in macrophages: 20.69%; PfKRS1: -2.49%; CoaBC: 6.38%. Cc1ccccc1CN1CCC[C@H]1c1nc(-c2cncnc2N)no1 gave MtTrpRS: 0.8346%; ClpP1P2: -12.3%; Leishmania in macrophages: 9.133%; PfKRS1: 3.909%; CoaBC: 9.492%. O=C1CCC2(CCCN(c3ncc(Cl)cc3F)C2)CN1CC1CC1 (stereo not shown) read MtTrpRS: 3.539%; ClpP1P2: -11.39%; Leishmania in macrophages: 21.45%; PfKRS1: -0.4276%; CoaBC: 3.125%. [H][C@@]12CCCO[C@]1([H])[C@H](NC(=O)c1cscn1)CN2Cc1ccco1 read Leishmania in macrophages: 38.01%. Cc1ccc(CN2CC3(CCN(S(=O)(=O)c4ccccc4)C3)C2)o1 read MtTrpRS: 1.213%; ClpP1P2: -18.12%; Leishmania in macrophages: 20.76%; PfKRS1: 3.235%; CoaBC: 4.58%. Result for CN(C)c1cc(C(=O)N2CCCC2)ccn1 was MtTrpRS: -6.952%; ClpP1P2: -10.4%; Leishmania in macrophages: 17.4%; PfKRS1: 0.8366%; CoaBC: 4.737%.

Result for CS(=O)(=O)N1CCC(C(=O)Nc2nnc(C(F)(F)F)[nH]2)CC1 was MtTrpRS: 5.027%; ClpP1P2: 0.7844%; Leishmania in macrophages: 1.048%; PfKRS1: 6.993%; CoaBC: 8.065%. Cn1cnc(-c2nc(C(=O)NCCN3CCOCC3)c3ccccn23)c1 read MtTrpRS: -4.497%; ClpP1P2: -186.4%; Leishmania in macrophages: 40.37%; PfKRS1: 5.082%; CoaBC: 2.463%. Cc1oc(C)c(C(=O)NCc2ccccc2S(=O)(=O)N(C)C)c1C read MtTrpRS: 5.818%; ClpP1P2: 12.03%; Leishmania in macrophages: 4.289%; PfKRS1: 2.098%; CoaBC: 2.66%.

Some entries from above, unchanged:

compound,MtTrpRS,ClpP1P2,Leishmania in macrophages,PfKRS1,CoaBC
Cc1ccc(CN2CC3(CCN(S(=O)(=O)c4ccccc4)C3)C2)o1,1.213,-18.12,20.76,3.235,4.58
Cn1nc(N2CCCC(C(=O)Nc3nc4ccccc4[nH]3)C2)ccc1=O (stereo not shown),0.4944,-15.6,-23.67,4.285,2.554